These results are taken from doi:10.1101/2020.02.21.958371.

Where a protein sequence is shown, tags need not be part of it. For part of these data: The exact form of at least one protein or probe is not confirmed. For part of these data: A weaker result is weaker than the reference pair of the same experiment. For part of these data: At least one verdict was read from the data and is not stated in words by the source. A value given as a limit tells only on which side of the number the result lay.

For data set [1], the target named is T1, RMB1 MBD (EMSA) (Arabidopsis thaliana) (UniProt F4I209).
T1 sequence (looked up): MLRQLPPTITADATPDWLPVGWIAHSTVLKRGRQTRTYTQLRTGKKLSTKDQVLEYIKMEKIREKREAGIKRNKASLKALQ
Put plainly: EMSA. The following applies: residues 1-81.

Data set [2] has as its target T1, RMB1 MBD (EMSA) (Arabidopsis thaliana). Put plainly: competition with a labelled probe. The settings on record: unlabeled competitor versus methylated probe; residues 1-81.
In data set [3] the target is T2, RMB1 MBD (Arabidopsis thaliana) (UniProt F4I209).
T2 sequence (looked up): T1 sequence (looked up)
Put plainly: MST. The settings on record: residues 1-81.

Turning to “TCCGTAAAACTTTTCCCGCCAACCAAACGAACTTTCGCCCTAC (double strand) [MEMS mCG]”, in data set [1] (5mC at forward 17, reverse strand line not in material), the binding result was “binds”.

For the sequence “TCCGTAAAACTTTTCCCGCCAACCAAACGAACTTTCGCCCTAC (double strand) [MEMS mCHG]”, the binding result in data set [1] (5mC at forward 16, reverse unmethylated) is on record as “binds”.

As for “TCCGTAAAACTTTTCCCGCCAACCAAACGAACTTTCGCCCTAC (double strand) [MEMS mCHH]”, the binding result in data set [1] (5mC at forward 19 and reverse 40) is on record as “binds”.

As for “TTTGGTACGGACTTTTAGTTACAAGAGAGCATTTAAACAAAAATGACCGGTAGATGGAA (double strand) [AT5G39160 Um]”, in data set [2], the binding result is given as “binds more weakly”. For the same sequence, the Kd in data set [3] is more than 5.27 µM.

As for “TTTGGTACGGACTTTTAGTTACAAGAGAGCATTTAAACAAAAATGACCGGTAGATGGAA (double strand) [AT5G39160 mCHH]”, the binding result in data set [1] (5mC at forward 12, 22, 30, 38, reverse unmethylated) is “binds”.
